These are yes or no findings as the source states them, for the method shown. For part of these data: In cells and extracts the contact can be indirect. Some entries that bind do so weakly or less than the wild type. For part of these data: Tags and fused reporters may be left off the sequences shown.
Legend:
[1] = molecular target: T1, GST-par-4 (full length rat par-4) (rat) (UniProt Q62627); assay: in vitro binding to par-4; construct not named, data not shown
T1 sequence (looked up): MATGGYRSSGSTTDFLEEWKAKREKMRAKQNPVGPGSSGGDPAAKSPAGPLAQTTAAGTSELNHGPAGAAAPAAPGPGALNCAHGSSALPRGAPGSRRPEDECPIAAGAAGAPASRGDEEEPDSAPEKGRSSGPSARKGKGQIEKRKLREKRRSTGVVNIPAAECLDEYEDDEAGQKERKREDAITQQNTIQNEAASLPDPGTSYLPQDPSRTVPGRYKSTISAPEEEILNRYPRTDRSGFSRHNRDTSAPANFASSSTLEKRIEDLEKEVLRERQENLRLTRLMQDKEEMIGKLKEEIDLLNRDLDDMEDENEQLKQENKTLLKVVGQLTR

Amino acid sequences for entries named in this document (tags omitted).
UniProt P22561: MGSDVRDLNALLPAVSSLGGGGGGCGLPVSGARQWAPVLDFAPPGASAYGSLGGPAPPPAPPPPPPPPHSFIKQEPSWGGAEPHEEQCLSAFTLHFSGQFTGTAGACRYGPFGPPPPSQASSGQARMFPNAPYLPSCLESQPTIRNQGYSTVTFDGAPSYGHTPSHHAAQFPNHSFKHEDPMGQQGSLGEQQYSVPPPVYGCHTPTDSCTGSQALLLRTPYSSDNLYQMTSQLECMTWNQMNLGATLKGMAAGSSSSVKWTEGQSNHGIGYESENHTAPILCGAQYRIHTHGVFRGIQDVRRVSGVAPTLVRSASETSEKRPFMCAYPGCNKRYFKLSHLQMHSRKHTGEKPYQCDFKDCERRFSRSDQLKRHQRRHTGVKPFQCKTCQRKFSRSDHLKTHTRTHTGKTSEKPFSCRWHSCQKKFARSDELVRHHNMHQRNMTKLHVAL

[2] = molecular target: T2, endogenous par-4 of M15 mouse mesonephric cells (mouse) (UniProt Q925B0); assay: co-immunoprecipitation, M15 cells
T2 sequence (looked up): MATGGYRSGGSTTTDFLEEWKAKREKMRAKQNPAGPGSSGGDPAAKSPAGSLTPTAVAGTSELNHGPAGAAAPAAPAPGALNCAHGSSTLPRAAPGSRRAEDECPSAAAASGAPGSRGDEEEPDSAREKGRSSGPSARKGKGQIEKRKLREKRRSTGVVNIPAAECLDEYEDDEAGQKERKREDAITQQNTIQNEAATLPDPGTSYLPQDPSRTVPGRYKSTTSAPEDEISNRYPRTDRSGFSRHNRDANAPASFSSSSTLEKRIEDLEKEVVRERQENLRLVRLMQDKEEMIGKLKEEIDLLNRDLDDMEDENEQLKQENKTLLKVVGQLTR

[3] = molecular target: T2, endogenous par-4 of M15 mouse mesonephric cells (mouse); assay: co-immunoprecipitation from M15 cells
[4] = molecular target: T2, endogenous par-4 of M15 mouse mesonephric cells (mouse); assay: co-immunoprecipitation of endogenous proteins from M15 cells (FIG. 4E legend)
[5] = molecular target: T2, endogenous par-4 of M15 mouse mesonephric cells (mouse); assay: co-immunoprecipitation of endogenous proteins from M15 whole cell lysate, anti-WT1 Western blot (FIG. 4E)

| binding [1] | binding [2] | binding [3] | binding [4] | binding [5] | Substance |
| --- | --- | --- | --- | --- | --- |
| binds |  |  |  |  | WT1 isoform B (from UniProt P19544 1-446) |
| binds |  |  |  |  | WT1 isoform C (from UniProt P19544 1-432) |
|  | binds | binds | binds | binds | endogenous WT1 of M15 mouse mesonephric cells (from UniProt P22561 1-449) |
